According to patent publication US12441773B2, “Peptides, hydrogel compositions and methods of use thereof” (Regents of the University of Minnesota, priority 2019, dated 2025):
Part of at least one peptide drawing is inferred or uncertain, most often the ends. Some entries share one result that the patent states for a list of compounds. Where a SMILES comes first, the peptide text is derived from it. [ ]: non-standard residue; d: D form. PEG1 = NCCOCCC(=O)O

Key:
P. aeruginosa [1] = test: Overnight growth of P. aeruginosa on preformed hydrogels (OD 630 nm); format: cell-based, Pseudomonas aeruginosa; settings: preformed hydrogel
[2] = Hydrogel formation with dilute sodium hydroxide, Crystal Violet overlay; format: physicochemical; settings: 8.3 mg/ml peptide, 16.7 mM NaOH, room temperature 5-10 min
Procedure: FIG. 2: Hydrogel formation of GL13 peptides. Hydrogels are overlaid with Crystal Violet solution. D=DGL13K; R=DGL13R; PEG-L=PEG-LGL13K; pro-D=PEG-pro-DGL13K; E4=PEG-E4-pro-DGL13K; L=LGL13K.
FIG. 8: Hydrogels were formed with 4.2 mg/ml peptide+sodium hydroxide at the concentrations shown. Hydrogels were overlaid with Crystal Violet. Two phases indicate the formation of a hydrogel; Phase mixing indicates the absence of hydrogel. The hydrogels formed at 6.7 mM NaOH were not stable overnight (not shown).
FIG. 9: Hydrogels were formed with 16.7 mM sodium hydroxide and peptides at the concentrations shown. D=DGL13K; L=LGL13K; R=DGL13R. Hydrogels were overlaid with Crystal Violet and imaged within 10 min. Two phases indicate the formation of a hydrogel; Phase mixing indicates the absence of hydrogel.
The antimicrobial peptide GL13K can form a hydrogel when the peptide is reacted with dilute sodium hydroxide. Hydrogels were formed by incubating 8.3 mg/ml peptide with 16.7 mM NaOH and incubating at room temperature for 5-10 min. Hydrogels were overlaid with Crystal Violet. Two phases indicate the formation of a hydrogel; Phase mixing indicates the absence of hydrogel.

P. aeruginosa [3] = test: Peptide hydrogels placed on P. aeruginosa plated on agar; format: cell-based, Pseudomonas aeruginosa; settings: hydrogel on agar plate
Procedure: FIG. 4: Peptide hydrogels on P. aeruginosa Ac.Ac.=0.01% acetic acid mixed with NaOH (buffer control).
To test antibacterial activity, S. aureus (FIG. 3) or P. aeruginosa (FIG. 4) were plated on agar and peptide hydrogels placed on top of the bacteria. The plates were incubated to allow a bacterial lawn to grow. […] The larger inhibition zone seen for DGL13R is consistent with a lack of hydrogel formation, which allowed the peptide solution to spread on the plate.

CC[C@@H](C)[C@@H](NC(=O)[C@@H](CCCCN)NC(=O)CN)C(=O)N[C@@H](C(=O)N[C@H](CCCCN)C(=O)N[C@H](CC(C)C)C(=O)N[C@H](CCCCN)C(=O)N[C@H](C)C(=O)N[C@H](CO)C(=O)N[C@H](CC(C)C)C(=O)N[C@H](CCCCN)C(=O)N[C@H](CC(C)C)C(=O)N[C@H](CC(C)C)C(N)=O)[C@H](C)CC [DGL13K, NH2-Gly-d-Lys-d-Ile-d-Ile-d-Lys-d-Leu-d-Lys-d-Ala-d-Ser-d-Leu-d-Lys-d-Leu-d-Leu-CONH2] (H-G[dK][dI][dI][dK][dL][dK][dA][dS][dL][dK][dL][dL]-NH2)
Starting bacterial load up to which growth was prevented (Pa) (P. aeruginosa [1]): ≤ 10^7 CFU

CC[C@@H](C)[C@@H](NC(=O)[C@@H](CCCCN)NC(=O)CNC(=O)CCOCCN)C(=O)N[C@@H](C(=O)N[C@H](CCCCN)C(=O)N[C@H](CC(C)C)C(=O)N[C@H](CCCCN)C(=O)N[C@H](C)C(=O)N[C@H](CO)C(=O)N[C@H](CC(C)C)C(=O)N[C@H](CCCCN)C(=O)N[C@H](CC(C)C)C(=O)N[C@H](CC(C)C)C(N)=O)[C@H](C)CC [PEG-DGL13K, PEG-Gly-d-Lys-d-Ile-d-Ile-d-Lys-d-Leu-d-Lys-d-Ala-d-Ser-d-Leu-d-Lys-d-Leu-d-Leu-CONH2] (H-[PEG1]G[dK][dI][dI][dK][dL][dK][dA][dS][dL][dK][dL][dL]-NH2)
Hydrogel formation [2]: formed hydrogels

CC[C@@H](C)[C@@H](NC(=O)[C@@H](CCCCN)NC(=O)CNC(=O)[C@@H](C)NC(=O)CNC(=O)CNC(=O)[C@@H](CC(C)C)NC(=O)CCOCCN)C(=O)N[C@@H](C(=O)N[C@H](CCCCN)C(=O)N[C@H](CC(C)C)C(=O)N[C@H](CCCCN)C(=O)N[C@H](C)C(=O)N[C@H](CO)C(=O)N[C@H](CC(C)C)C(=O)N[C@H](CCCCN)C(=O)N[C@H](CC(C)C)C(=O)N[C@H](CC(C)C)C(N)=O)[C@H](C)CC [PEG-pro-DGL13K, PEG-d-Leu-Gly-Gly-d-Ala-Gly-d-Lys-d-Ile-d-Ile-d-Lys-d-Leu-d-Lys-d-Ala-d-Ser-d-Leu-d-Lys-d-Leu-d-Leu-CONH2] (H-[PEG1][dL]GG[dA]G[dK][dI][dI][dK][dL][dK][dA][dS][dL][dK][dL][dL]-NH2)
Growth of P. aeruginosa lawn under peptide hydrogel (P. aeruginosa [3]): effectively prevented the growth | Hydrogel formation [2]: formed hydrogels | Starting bacterial load up to which growth was prevented (Pa) (P. aeruginosa [1]): ≤ 10^7 CFU
